Values quoted from earlier work in patent US20260102363A1, “TREATMENT METHOD AND ANTIFUNGAL COMPOSITION” (MOBERG PHARMA AB, priority 2020, published 2026).
For at least one compound, name, drawing or mass did not settle the structure.

Tested on: DSO
Conditions: single reported study

For `CCC(C)n1ncn(-c2ccc(N3CCN(c4ccc(OCC5COC(Cn6cncn6)(c6ccc(Cl)cc6Cl)O5)cc4)CC3)cc2)c1=O` (centres unmarked) [Itraconazole (SPORANOX ®), itraconazole], the “Complete Cure (%)” value is given as 14% and the “Mycological Cure (%)” value is given as 54%.
